Data from the ROBIN nucleic acid binder screens, doi:10.1002/anie.202211358.

Oligonucleotides screened, 5′ to 3′:
T1: SAM-II riboswitch RNA pseudoknot, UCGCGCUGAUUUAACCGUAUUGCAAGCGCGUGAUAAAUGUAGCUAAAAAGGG. About 200 hits among about 21,000 compounds.
T2: TPP riboswitch RNA three-way junction, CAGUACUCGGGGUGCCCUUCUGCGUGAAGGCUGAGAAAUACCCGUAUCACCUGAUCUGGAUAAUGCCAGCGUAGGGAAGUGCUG. About 160 hits among about 24,000 compounds.
T3: PreQ1 riboswitch RNA pseudoknot, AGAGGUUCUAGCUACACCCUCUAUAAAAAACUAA. From B. subtilis. About 170 hits among about 24,000 compounds.

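Each compound is printed as two spots on a slide made to bind it covalently, so it has no test concentration; the read-out is fluorescence of the bound, labelled oligonucleotide. The data file lists only calls. An earlier report of the laboratory on the PreQ1, TPP and SAM-II riboswitches (doi:10.1038/s41467-019-09493-3) used 1 µM RNA for 2 h and required a mean Z-score above 3 (spot signal-to-noise against the whole library), a score well above that on a control array, and duplicate spots agreeing (coefficient of variation under 100); it then also set aside compounds that hit other targets, which this list keeps. The cut-offs behind this list may differ. The calls come from the array alone, and fixing a compound to the slide can hide its binding.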
“1” means called a hit, “0” means screened and not called a hit.
Compounds were drawn at random from those tested, without regard to their results.
A target missing from an entry has no call listed here.
A dash means that no call is listed here.

| # | SMILES | T1 | T2 | T3 |
|---|---|---|---|---|
| 1 | `CCOC(=O)c1cccc(Nc2nc(C)nc3c2CCC3)c1` | - | 0 | 0 |
| 2 | `O=C(CCCc1ccc(Cl)cc1)N1C[C@@H]2CCCN[C@@H]2C1` | 0 | 0 | 0 |
| 3 | `OCCCc1nc2n(n1)C(c1cccc(Cl)c1)C=C(c1ccc(F)cc1)N2` (stereo unspecified) | 0 | 0 | 0 |
| 4 | `CC(CN1CCCCCC1)NCC1CCN(C(=O)C(C)C)CC1` (stereo unspecified) | 0 | 0 | 0 |
| 5 | `Nc1c(Cl)cc(S(N)(=O)=O)cc1S(N)(=O)=O` | 0 | 0 | 0 |
| 6 | `Cc1cccc(-c2nc(CNC(=O)c3cn4c(n3)CNCC4)cs2)c1` | 0 | 0 | 0 |
| 7 | `COc1ccccc1NC(=O)c1nnn(Cc2ccccc2)c1N` | 0 | 0 | 0 |
| 8 | `CCc1c(C)nc2ncnn2c1Nc1ccc(Br)c(C)c1` | 0 | 0 | 0 |
| 9 | `CN(C)CCCC1(c2ccc(F)cc2)OCc2cc(C#N)ccc21` (stereo unspecified) | 0 | 0 | 0 |
| 10 | `CN(C)CCCNCc1ccccn1` | 0 | 0 | 0 |
| 11 | `C=CCn1c(=N)n(CC(O)COc2ccccc2OC)c2ccccc21` (stereo unspecified) | 0 | 0 | 0 |
| 12 | `CCc1ccc(Nc2cc(C)nc3nc(-c4cccnc4)nn23)cc1` | - | 0 | 0 |
| 13 | `CC(C)OCC(O)Cn1c(NC2CCCCC2)nc2c1c(=O)[nH]c(=O)n2C` (stereo unspecified) | 0 | 0 | 0 |
| 14 | `Cc1ccc(NC(=O)c2c(N)sc3c2CCC3)cc1` | 0 | 0 | 0 |
| 15 | `COc1ccc(C2(CNCC#N)CCCC2)cc1OC` | 0 | 0 | 0 |
| 16 | `CC(C)c1cc(N(C)CC2(CO)CCOCC2)n2nccc2n1` | 0 | 0 | 0 |
| 17 | `CC(Cc1cccs1)NCC(=O)Nc1cnccn1` (stereo unspecified) | 0 | 0 | 0 |
| 18 | `Nc1c(-c2nc(-c3ccncc3)no2)nnn1-c1ccccc1F` | - | 0 | 0 |
| 19 | `COCCN(CC1CC1)C(=O)c1ccc(C2CCCNC2)cc1` (stereo unspecified) | 0 | 0 | 0 |
| 20 | `Cc1cccnc1Cn1nc(C2CCNCC2)n(Cc2ccccc2)c1=O` | 0 | 0 | 0 |
| 21 | `COc1ccc(-c2nc(CO)cs2)cn1` | 0 | 0 | 0 |
| 22 | `Cc1ccc2nc(C3=C(N)N(C4CCCCCCC4)CC3=O)[nH]c2c1` | - | 0 | 0 |
| 23 | `O=C(NCc1ccc2c(c1)OCCCO2)c1cn(CC2CCCNC2)nn1` (stereo unspecified) | 0 | 0 | 0 |
| 24 | `Cc1cc(C)n2nc(NCc3cccs3)nc2n1` | - | 0 | 0 |
| 25 | `CS(=O)(=O)CCC(=O)N1CCC2(CC1)[C@H](O)C[C@@H]2OCCN` | 0 | 0 | 0 |
| 26 | `OCn1cncn1` | 0 | 0 | 0 |
| 27 | `CCOC(=O)c1ccc(Nc2cc(C)nc(C)c2C(=O)OCC)cc1` | 0 | 0 | 0 |
| 28 | `CCn1c(Cn2ccnc2C)nnc1C1CCN(c2cc(N)ncn2)CC1` | 0 | 0 | 0 |
| 29 | `Cc1ccc2nc(CNCC3(c4ccc(F)cc4)CCOC3)[nH]c2c1C` (stereo unspecified) | 0 | 0 | 0 |
| 30 | `CCn1c(=N)n(CC(O)c2ccco2)c2ccccc21.Cl` (stereo unspecified) | 0 | 0 | 0 |
| 31 | `Cc1cc(NCc2cccnc2)n2nc(-c3ccc(Cl)cc3)c(C)c2n1` | - | 0 | 0 |
| 32 | `CN(Cc1ccccc1)S(=O)(=O)c1ccc(NC2=NS(=O)(=O)c3ccccc32)cc1` | 0 | 0 | 0 |
| 33 | `CN(C)CCNCc1ccc(-c2cccc(C(=O)O)c2)o1.Cl.Cl` | 0 | 0 | 0 |
| 34 | `CC(=O)Nc1ccc(N2CC(=O)C(c3nc(C)c(C)s3)=C2N)cc1` | - | 0 | 0 |
| 35 | `Nc1ccc2c(c1)nc1n2CCOC1` | 0 | 0 | 0 |
| 36 | `Cc1nc(N)c(S(=O)(=O)c2ccccc2)c(Nc2ccc(Br)cc2)n1` | 0 | 0 | 0 |
| 37 | `Cc1ccccc1CN(CCO)C(=O)c1ccc(S(N)(=O)=O)cc1` | 0 | 0 | 0 |
| 38 | `C[C@](N)(Cc1ccccc1)c1nc(-c2cccnn2)no1` | 0 | 0 | 0 |
| 39 | `N#CC1=C(N)Oc2c(c(=O)oc3ccccc23)C1c1ccccc1Cl` (stereo unspecified) | 0 | 0 | 0 |
| 40 | `CCOC(=O)c1cnc2ccc(C(=O)OC)cc2c1Nc1cccc(C(C)=O)c1` | 0 | 0 | 0 |
| 41 | `Cc1ccc2c(CNC3CCCCCCC3)c(C(=O)O)[nH]c2c1` | - | 0 | 0 |
| 42 | `O=S(=O)(c1ccc(F)cc1)c1nc(-c2ccc(F)cc2)oc1NCc1ccco1` | - | 0 | 0 |
| 43 | `CC#CCn1c(N2CCC[C@@H](N)C2)nc2c1c(=O)n(Cc1nc(C)c3ccccc3n1)c(=O)n2C` | 0 | 0 | 0 |
| 44 | `COC(=O)C1=C(N)Oc2c(oc(CO)cc2=O)C1c1ccc(Cl)c(Cl)c1` (stereo unspecified) | 0 | 0 | 0 |
| 45 | `O=c1ccn2c(n1)SC(c1ccccc1)C2` (stereo unspecified) | 0 | 0 | 0 |
| 46 | `Cc1cc(NCC(=O)N2CCCCCC2)n2nc(-c3cccnc3)nc2n1` | - | 0 | 0 |
| 47 | `Cc1cccc(NCc2nc(-c3ccccc3)no2)c1` | 0 | 0 | 0 |
| 48 | `N#Cc1ccc(COC(=O)c2nn(-c3ccccc3)nc2N)cc1` | 0 | 0 | 0 |
| 49 | `Cc1nc[nH]c1CSCCNC(=O)[C@@]12CNC[C@@H]1CN(C)C2` | 0 | 0 | 0 |
| 50 | `Cc1ccccc1C(C(=O)NC1CCCC1)N(C(=O)Cn1cnc2ccccc21)c1cccc(F)c1` (stereo unspecified) | 0 | 0 | 0 |

The first 5 entries again:

{"smiles": "CCOC(=O)c1cccc(Nc2nc(C)nc3c2CCC3)c1", "T2": "0", "T3": "0"}
{"smiles": "O=C(CCCc1ccc(Cl)cc1)N1C[C@@H]2CCCN[C@@H]2C1", "T1": "0", "T2": "0", "T3": "0"}
{"smiles": "OCCCc1nc2n(n1)C(c1cccc(Cl)c1)C=C(c1ccc(F)cc1)N2", "stereo": "stereo unspecified", "T1": "0", "T2": "0", "T3": "0"}
{"smiles": "CC(CN1CCCCCC1)NCC1CCN(C(=O)C(C)C)CC1", "stereo": "stereo unspecified", "T1": "0", "T2": "0", "T3": "0"}
{"smiles": "Nc1c(Cl)cc(S(N)(=O)=O)cc1S(N)(=O)=O", "T1": "0", "T2": "0", "T3": "0"}